Measured values as given in US6951860B2, “Calcium channel blockers” (Massachusetts College of Pharmacy, priority 1997, dated 2005).
Some of these results come from one statement about several compounds together.

tested on: anesthetized rats; test: In vivo antihypertensive activity in anesthetized rats (decrease in maximal arterial blood pressure, MAP); design: species or system rat; conditions: urethane-anesthetized male CD rats; via jugular vein; doses 10-500 mcg/kg; compared to control and Diltiazem; FIGS. 2-6

Row | Structure (SMILES) | reduction in maximal arterial blood pressure (MAP)
1 | COc1ccc(CSc2ccccc2C(=O)N2CCN(Cc3ccc(OC)cc3)CC2)cc1 [Compound 4, N^1-(S-(4-methoxybenzyl)thiosalicyloyl)-N-(4methoxybenzyl)piperazine] | significant reduction in MAP
2 | COc1ccc(CSc2ccccc2C(=O)NCCN(C)C)cc1 [Compound 1, S-(4-methoxybenzyl)-N-(2-(N′,N′-dimethylamino)ethyl) thiosalicylamide] | significant reduction in MAP
3 | COc1ccc(CSc2ccccc2C(=O)N2CCN(C)CC2)cc1 [Compound 2, N^1-(S-(4-methoxybenzyl)thiosalicyloyl)-N^4-methylpiperazine] | significant reduction in MAP
4 | COc1ccc(CSc2ccccc2C(=O)N2CCN(Cc3ccccc3)CC2)cc1 [Compound 5, N^1-(S-(4-methoxybenzyl)thiosalicyloyl)-N^4-benzylpiperazine] | significant reduction in MAP
5 | COc1ccc(CSc2ccccc2C(=O)N2CCN(Cc3ccc4c(c3)OCO4)CC2)cc1 [Compound 3, N^1-(S-(4′-methoxybenzyl)thiosalicyloyl)-N piperonylpiperazine] | significant reduction in MAP
